These are yes or no findings as the source states them, for the method shown. In cells and extracts the contact can be indirect. Some entries that bind do so weakly or less than the wild type. One block for each molecule: values may come before it.
Experiments:
[1] = biological target: T1, USP18 (human (endogenous in Flo-1)) (UniProt Q9UMW8); assay: cross-linking; in-situ DSS cross-linking (0.5 mM, 5 min, 37 °C, in PBS) of Flo-1 cells treated with 10 ng/ml IFNα14 for 24 h (untreated cells run beside them); tryptic cross-linked peptides by LC-MS/MS, identified with SIM-XL (K-K, K-S, K-N-terminus)
T1 sequence: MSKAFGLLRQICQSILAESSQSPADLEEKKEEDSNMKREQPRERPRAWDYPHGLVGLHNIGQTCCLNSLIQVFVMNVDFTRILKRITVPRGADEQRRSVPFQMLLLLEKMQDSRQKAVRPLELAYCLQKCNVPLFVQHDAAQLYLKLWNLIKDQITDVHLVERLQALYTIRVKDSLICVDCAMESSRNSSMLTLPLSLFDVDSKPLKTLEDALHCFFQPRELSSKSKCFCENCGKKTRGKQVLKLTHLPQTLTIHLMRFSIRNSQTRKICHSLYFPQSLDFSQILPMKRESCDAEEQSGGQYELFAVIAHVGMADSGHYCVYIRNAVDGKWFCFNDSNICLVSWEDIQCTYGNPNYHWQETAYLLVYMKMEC

Amino acid sequences for entries named in this document (tags omitted). Residues count along the entry.
UniProt P42224: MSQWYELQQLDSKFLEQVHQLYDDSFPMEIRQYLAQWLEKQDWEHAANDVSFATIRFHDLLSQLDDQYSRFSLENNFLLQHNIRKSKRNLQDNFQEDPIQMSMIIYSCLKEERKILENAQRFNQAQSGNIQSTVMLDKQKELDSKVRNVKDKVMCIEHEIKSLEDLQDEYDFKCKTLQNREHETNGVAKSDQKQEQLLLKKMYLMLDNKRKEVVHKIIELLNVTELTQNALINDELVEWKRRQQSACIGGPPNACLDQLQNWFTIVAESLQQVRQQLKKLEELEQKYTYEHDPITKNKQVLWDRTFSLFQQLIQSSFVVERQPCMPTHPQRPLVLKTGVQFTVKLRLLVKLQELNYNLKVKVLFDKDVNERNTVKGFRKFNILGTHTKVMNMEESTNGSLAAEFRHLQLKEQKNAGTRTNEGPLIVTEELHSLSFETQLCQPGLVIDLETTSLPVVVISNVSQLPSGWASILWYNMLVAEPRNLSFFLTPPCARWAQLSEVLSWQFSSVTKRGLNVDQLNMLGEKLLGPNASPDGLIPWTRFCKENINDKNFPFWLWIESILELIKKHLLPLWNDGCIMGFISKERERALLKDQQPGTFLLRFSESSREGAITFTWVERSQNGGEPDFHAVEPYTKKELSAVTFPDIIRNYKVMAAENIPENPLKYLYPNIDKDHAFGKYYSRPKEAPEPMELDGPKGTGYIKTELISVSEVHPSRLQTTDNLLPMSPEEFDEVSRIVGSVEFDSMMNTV
UniProt Q9Y6N7, residues 26-1651: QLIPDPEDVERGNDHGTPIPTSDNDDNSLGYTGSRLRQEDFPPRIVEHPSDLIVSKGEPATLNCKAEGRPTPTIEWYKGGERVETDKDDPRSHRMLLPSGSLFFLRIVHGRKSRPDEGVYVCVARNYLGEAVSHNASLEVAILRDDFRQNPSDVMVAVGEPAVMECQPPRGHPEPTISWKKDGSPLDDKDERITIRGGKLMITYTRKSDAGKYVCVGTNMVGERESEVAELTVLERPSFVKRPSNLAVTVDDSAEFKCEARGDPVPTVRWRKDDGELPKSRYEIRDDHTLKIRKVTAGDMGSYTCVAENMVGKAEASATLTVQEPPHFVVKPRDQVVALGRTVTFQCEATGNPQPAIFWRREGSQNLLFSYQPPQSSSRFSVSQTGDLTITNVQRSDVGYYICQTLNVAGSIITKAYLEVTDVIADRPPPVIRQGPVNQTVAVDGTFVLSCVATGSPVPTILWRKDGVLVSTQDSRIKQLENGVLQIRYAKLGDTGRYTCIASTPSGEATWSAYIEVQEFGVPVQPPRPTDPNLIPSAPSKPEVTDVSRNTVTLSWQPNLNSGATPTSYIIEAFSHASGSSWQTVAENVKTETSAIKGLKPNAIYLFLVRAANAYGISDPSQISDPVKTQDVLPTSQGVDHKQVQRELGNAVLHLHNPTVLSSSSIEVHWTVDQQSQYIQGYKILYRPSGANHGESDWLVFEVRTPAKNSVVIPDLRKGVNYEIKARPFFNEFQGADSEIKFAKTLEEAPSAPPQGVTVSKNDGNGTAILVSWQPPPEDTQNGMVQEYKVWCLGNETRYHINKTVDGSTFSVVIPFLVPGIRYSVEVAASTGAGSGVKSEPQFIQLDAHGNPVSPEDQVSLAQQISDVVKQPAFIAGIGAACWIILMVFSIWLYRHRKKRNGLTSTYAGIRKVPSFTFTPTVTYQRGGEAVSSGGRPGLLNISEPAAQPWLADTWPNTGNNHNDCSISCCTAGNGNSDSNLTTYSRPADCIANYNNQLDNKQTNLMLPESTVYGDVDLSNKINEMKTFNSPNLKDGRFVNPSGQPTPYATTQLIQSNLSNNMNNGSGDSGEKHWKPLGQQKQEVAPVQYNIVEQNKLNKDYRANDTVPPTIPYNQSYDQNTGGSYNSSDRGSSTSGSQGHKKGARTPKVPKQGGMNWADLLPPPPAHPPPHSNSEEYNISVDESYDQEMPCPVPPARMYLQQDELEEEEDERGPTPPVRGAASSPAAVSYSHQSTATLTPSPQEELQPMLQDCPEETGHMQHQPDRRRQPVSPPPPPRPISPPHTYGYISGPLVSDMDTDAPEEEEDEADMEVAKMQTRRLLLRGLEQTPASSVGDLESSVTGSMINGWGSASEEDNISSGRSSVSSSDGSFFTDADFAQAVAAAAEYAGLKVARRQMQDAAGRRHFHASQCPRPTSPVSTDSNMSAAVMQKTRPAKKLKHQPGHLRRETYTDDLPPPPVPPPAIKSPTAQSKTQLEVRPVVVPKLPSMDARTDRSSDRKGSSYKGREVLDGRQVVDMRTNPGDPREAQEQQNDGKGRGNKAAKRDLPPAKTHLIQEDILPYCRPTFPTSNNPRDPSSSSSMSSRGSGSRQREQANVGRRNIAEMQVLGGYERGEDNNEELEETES
UniProt Q8IY21: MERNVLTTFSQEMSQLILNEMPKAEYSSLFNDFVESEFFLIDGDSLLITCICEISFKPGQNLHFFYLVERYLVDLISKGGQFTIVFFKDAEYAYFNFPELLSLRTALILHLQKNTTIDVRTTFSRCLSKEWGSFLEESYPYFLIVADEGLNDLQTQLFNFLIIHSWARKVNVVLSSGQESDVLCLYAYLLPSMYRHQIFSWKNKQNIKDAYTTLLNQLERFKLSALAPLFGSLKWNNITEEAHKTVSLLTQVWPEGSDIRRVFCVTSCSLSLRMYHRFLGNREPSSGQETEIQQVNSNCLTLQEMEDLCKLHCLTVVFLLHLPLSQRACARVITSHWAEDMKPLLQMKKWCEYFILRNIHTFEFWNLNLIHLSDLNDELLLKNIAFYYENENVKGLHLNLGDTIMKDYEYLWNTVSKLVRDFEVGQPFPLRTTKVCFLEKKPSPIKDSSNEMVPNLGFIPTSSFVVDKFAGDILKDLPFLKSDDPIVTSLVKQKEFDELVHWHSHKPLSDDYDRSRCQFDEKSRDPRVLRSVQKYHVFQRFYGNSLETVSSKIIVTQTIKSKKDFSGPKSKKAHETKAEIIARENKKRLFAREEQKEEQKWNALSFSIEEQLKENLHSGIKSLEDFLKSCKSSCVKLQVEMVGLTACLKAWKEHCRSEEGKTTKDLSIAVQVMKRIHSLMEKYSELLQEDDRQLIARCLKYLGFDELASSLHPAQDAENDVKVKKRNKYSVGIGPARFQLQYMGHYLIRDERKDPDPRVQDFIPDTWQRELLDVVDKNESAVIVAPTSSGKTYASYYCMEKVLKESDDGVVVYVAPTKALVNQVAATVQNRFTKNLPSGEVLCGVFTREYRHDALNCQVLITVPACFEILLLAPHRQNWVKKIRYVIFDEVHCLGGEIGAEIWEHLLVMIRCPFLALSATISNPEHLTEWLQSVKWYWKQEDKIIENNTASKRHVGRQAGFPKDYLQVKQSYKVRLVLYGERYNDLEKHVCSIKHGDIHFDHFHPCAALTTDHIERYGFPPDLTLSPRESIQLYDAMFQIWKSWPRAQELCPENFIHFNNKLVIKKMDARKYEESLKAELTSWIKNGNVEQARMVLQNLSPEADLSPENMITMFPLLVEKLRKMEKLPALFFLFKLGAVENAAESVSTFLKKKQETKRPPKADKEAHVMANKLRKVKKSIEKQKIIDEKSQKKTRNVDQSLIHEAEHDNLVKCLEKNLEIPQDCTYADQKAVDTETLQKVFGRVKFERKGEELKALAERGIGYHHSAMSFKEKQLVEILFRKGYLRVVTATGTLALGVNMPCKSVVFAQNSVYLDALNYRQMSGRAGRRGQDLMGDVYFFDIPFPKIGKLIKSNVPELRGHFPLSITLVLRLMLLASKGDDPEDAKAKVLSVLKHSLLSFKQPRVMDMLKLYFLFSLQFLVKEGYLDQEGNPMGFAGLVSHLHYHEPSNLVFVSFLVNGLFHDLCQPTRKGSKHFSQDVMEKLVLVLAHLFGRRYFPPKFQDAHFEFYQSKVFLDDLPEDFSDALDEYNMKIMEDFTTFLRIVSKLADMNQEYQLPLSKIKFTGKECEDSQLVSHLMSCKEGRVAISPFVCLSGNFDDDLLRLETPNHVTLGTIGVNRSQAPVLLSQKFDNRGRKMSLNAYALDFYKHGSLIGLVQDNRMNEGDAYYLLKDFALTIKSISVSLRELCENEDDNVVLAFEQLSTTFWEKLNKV

[2] = biological target: STAT1 (human (endogenous in Flo-1)) (UniProt P42224); assay: as above
[3] = biological target: T1, USP18 (human (endogenous in Flo-1)); assay: cross-linking; in-situ DSS cross-linking (0.5 mM, 5 min, 37 °C, in PBS) of untreated Flo-1 cells (no IFNα); LC-MS/MS, SIM-XL
[4] = biological target: STAT1 (human (endogenous in Flo-1)) (UniProt P42224); assay: as above
[5] = biological target: T2, LRCH4 (human (endogenous in Flo-1)) (UniProt O75427); assay: cross-linking; in-situ DSS cross-linking (0.5 mM, 5 min, 37 °C, in PBS) of Flo-1 cells treated with 10 ng/ml IFNα14 for 24 h (untreated cells run beside them); tryptic cross-linked peptides by LC-MS/MS, identified with SIM-XL (K-K, K-S, K-N-terminus)
T2 sequence: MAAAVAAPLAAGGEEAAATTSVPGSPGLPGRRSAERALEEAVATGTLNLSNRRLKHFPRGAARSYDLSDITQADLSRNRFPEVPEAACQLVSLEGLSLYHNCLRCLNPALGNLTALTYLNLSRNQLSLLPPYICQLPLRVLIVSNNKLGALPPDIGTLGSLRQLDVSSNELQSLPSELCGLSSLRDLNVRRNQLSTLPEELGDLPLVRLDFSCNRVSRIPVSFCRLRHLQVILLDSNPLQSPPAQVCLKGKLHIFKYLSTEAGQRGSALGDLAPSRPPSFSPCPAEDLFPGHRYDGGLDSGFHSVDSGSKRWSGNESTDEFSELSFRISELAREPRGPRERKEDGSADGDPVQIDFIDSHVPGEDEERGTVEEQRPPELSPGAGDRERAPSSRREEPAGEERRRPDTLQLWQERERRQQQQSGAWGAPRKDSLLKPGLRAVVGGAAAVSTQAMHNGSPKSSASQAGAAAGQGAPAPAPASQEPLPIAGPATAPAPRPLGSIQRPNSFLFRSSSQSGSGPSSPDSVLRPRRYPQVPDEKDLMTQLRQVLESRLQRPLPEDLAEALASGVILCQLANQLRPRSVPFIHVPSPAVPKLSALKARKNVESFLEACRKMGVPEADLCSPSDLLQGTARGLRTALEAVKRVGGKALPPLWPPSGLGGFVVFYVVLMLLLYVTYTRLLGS

[6] = biological target: ROBO1 (human (endogenous in Flo-1)) (UniProt Q9Y6N7); assay: cross-linking; in-situ DSS cross-linking (0.5 mM, 5 min, 37 °C, in PBS) of untreated Flo-1 cells (no IFNα); LC-MS/MS, SIM-XL
[7] = biological target: T1, USP18 (human (endogenous in Flo-1)); assay: cross-linking; in-situ DSS cross-linking (0.5 mM, 5 min, 37 °C, in PBS) of Flo-1 cells treated with 10 ng/ml IFNα14 for 24 h (untreated cells run beside them); tryptic cross-linked peptides by LC-MS/MS, identified with SIM-XL (K-K, K-S, K-N-terminus); remark: listed apart in the source
[8] = biological target: ROBO1 (human (endogenous in Flo-1)) (UniProt Q9Y6N7); assay: as above
[9] = biological target: STAT1 (human (endogenous in Flo-1)) (UniProt P42224); assay: as above; remark: listed apart in the source
[10] = biological target: T3, MX1 (human (endogenous in Flo-1)) (UniProt P20591); assay: as above
T3 sequence: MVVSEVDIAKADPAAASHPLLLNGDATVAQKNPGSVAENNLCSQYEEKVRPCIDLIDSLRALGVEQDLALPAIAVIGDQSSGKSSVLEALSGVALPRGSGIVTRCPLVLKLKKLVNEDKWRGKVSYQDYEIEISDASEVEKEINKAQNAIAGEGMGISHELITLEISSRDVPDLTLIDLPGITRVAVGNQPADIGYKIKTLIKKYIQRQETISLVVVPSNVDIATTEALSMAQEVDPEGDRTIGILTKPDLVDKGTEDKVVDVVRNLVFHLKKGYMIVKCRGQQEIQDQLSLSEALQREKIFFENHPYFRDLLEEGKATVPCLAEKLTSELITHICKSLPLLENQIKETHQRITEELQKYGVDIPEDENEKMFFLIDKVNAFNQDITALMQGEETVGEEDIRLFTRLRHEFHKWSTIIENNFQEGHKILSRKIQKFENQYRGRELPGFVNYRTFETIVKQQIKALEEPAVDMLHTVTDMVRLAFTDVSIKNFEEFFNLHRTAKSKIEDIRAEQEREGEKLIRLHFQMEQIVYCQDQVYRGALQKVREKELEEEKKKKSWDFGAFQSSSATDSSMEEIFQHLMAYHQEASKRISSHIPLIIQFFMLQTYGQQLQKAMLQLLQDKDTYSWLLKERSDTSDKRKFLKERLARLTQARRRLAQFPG

[11] = biological target: DDX60 (human (endogenous in Flo-1)) (UniProt Q8IY21); assay: as above

Molecule: MDN1 (from UniProt Q9NU22 1-5596)
binding [5]: binds

B1: OAS3 (protein, UniProt Q9Y6K5 1-1087)
chain: MDLYSTPAAALDRFVARRLQPRKEFVEKARRALGALAAALRERGGRLGAAAPRVLKTVKGGSSGRGTALKGGCDSELVIFLDCFKSYVDQRARRAEILSEMRASLESWWQNPVPGLRLTFPEQSVPGALQFRLTSVDLEDWMDVSLVPAFNVLGQAGSGVKPKPQVYSTLLNSGCQGGEHAACFTELRRNFVNIRPAKLKNLILLVKHWYHQVCLQGLWKETLPPVYALELLTIFAWEQGCKKDAFSLAEGLRTVLGLIQQHQHLCVFWTVNYGFEDPAVGQFLQRQLKRPRPVILDPADPTWDLGNGAAWHWDLLAQEAASCYDHPCFLRGMGDPVQSWKGPGLPRAGCSGLGHPIQLDPNQKTPENSKSLNAVYPRAGSKPPSCPAPGPTGAASIVPSVPGMALDLSQIPTKELDRFIQDHLKPSPQFQEQVKKAIDIILRCLHENCVHKASRVSKGGSFGRGTDLRDGCDVELIIFLNCFTDYKDQGPRRAEILDEMRAQLESWWQDQVPSLSLQFPEQNVPEALQFQLVSTALKSWTDVSLLPAFDAVGQLSSGTKPNPQVYSRLLTSGCQEGEHKACFAELRRNFMNIRPVKLKNLILLVKHWYRQVAAQNKGKGPAPASLPPAYALELLTIFAWEQGCRQDCFNMAQGFRTVLGLVQQHQQLCVYWTVNYSTEDPAMRMHLLGQLRKPRPLVLDPADPTWNVGHGSWELLAQEAAALGMQACFLSRDGTSVQPWDVMPALLYQTPAGDLDKFISEFLQPNRQFLAQVNKAVDTICSFLKENCFRNSPIKVIKVVKGGSSAKGTALRGRSDADLVVFLSCFSQFTEQGNKRAEIISEIRAQLEACQQERQFEVKFEVSKWENPRVLSFSLTSQTMLDQSVDFDVLPAFDALGQLVSGSRPSSQVYVDLIHSYSNAGEYSTCFTELQRDFIISRPTKLKSLIRLVKHWYQQCTKISKGRGSLPPQHGLELLTVYAWEQGGKDSQFNMAEGFRTVLELVTQYRQLCIYWTINYNAKDKTVGDFLKQQLQKPRPIILDPADPTGNLGHNARWDLLAKEAAACTSALCCMGRNGIPIQPWPVKAAV
binding [3]: no binding (condition: untreated cells (without IFNα)) | binding [6]: no binding (condition: untreated cells (without IFNα)) | binding [4]: no binding (condition: untreated cells (without IFNα)) | binding [7]: binds | binding [8]: binds | binding [9]: binds

B2: OAS1 (protein, UniProt P00973 1-400)
chain: MMDLRNTPAKSLDKFIEDYLLPDTCFRMQINHAIDIICGFLKERCFRGSSYPVCVSKVVKGGSSGKGTTLRGRSDADLVVFLSPLTTFQDQLNRRGEFIQEIRRQLEACQRERAFSVKFEVQAPRWGNPRALSFVLSSLQLGEGVEFDVLPAFDALGQLTGGYKPNPQIYVKLIEECTDLQKEGEFSTCFTELQRDFLKQRPTKLKSLIRLVKHWYQNCKKKLGKLPPQYALELLTVYAWERGSMKTHFNTAQGFRTVLELVINYQQLCIYWTKYYDFKNPIIEKYLRRQLTKPRPVILDPADPTGNLGGGDPKGWRQLAQEAEAWLNYPCFKNWDGSPVSSWILLAESNSADDETDDPRRYQKYGYIGTHEYPHFSHRPSTLQAASTPQAEEDWTCTIL
binding [10]: binds

Further lines, with some results ahead:

binding [1]: binds | binding [2]: binds
Molecule: ROBO1 (from UniProt Q9Y6N7 26-1651)
binding [3]: no binding (condition: untreated cells (without IFNα)) | binding [4]: no binding (condition: untreated cells (without IFNα))

binding [11]: binds
B3: IFIT3 (protein, UniProt O14879 1-490)
chain: MSEVTKNSLEKILPQLKCHFTWNLFKEDSVSRDLEDRVCNQIEFLNTEFKATMYNLLAYIKHLDGNNEAALECLRQAEELIQQEHADQAEIRSLVTWGNYAWVYYHLGRLSDAQIYVDKVKQTCKKFSNPYSIEYSELDCEEGWTQLKCGRNERAKVCFEKALEEKPNNPEFSSGLAIAMYHLDNHPEKQFSTDVLKQAIELSPDNQYVKVLLGLKLQKMNKEAEGEQFVEEALEKSPCQTDVLRSAAKFYRRKGDLDKAIELFQRVLESTPNNGYLYHQIGCCYKAKVRQMQNTGESEASGNKEMIEALKQYAMDYSNKALEKGLNPLNAYSDLAEFLETECYQTPFNKEVPDAEKQQSHQRYCNLQKYNGKSEDTAVQHGLEGLSISKKSTDKEEIKDQPQNVSENLLPQNAPNYWYLQGLIHKQNGDLLQAAKCYEKELGRLLRDAPSGIGSIFLSASELEDGSEEMGQGAVSSSPRELLSNSEQLN
